Measured values as given in PubChem BioAssay AID1347423 (Functional Genomics Laboratory (NCATS/FGL), 2020).
Among all 52,000 sequences or so, about 210 (0.4%) were called active.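 How the source made its calls: active means gene whose silencing raises cell survival under the drug, median off-target-corrected z-score across its silencing RNAs 2 or more; inactive means the rest.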 The list shows a part of the results.

Test: Resistance to Poly (ADP-Ribose) Polymerase inhibitor: Gene Identification via Genome-wide siRNA Screen
Conditions: mouse BRCA2 R2336H ES cells, olaparib, CellTiter-Glo viability; active compounds read high
Method in brief: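 Genome-wide siRNA screen (3 siRNAs/gene, 20 nM) in mouse ES cells carrying hypomorphic BRCA2 R2336H; olaparib 500 nM added 48 h post-transfection, CellTiter-Glo viability 72 h later. Normalized to plate-median negative control; MAD z-scores, gene median, seed-adjusted.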
With “GGAGGAAAUGCACUACAAGTT against F730014I05Rik” the z-score was inactive: -0.771. With GCAUCUAUCGGAUUCUUAUTT against LOC234374 the z-score was inactive: -1.66. For GCCUUCUGAGAUAGUAGAUTT against Zcchc17, the z-score was inactive: -0.5. In the case of GGAGCUGGAACAGAUGGAATT against Atf5, the z-score is reported as inactive: -0.463. In the case of GCUUCGAAGGCAAAUGUGGTT against Vamp4, the z-score is reported as inactive: -0.51. For GGGUUCAAGAGAUGGGAAUTT against Efna5, the z-score was inactive: -1.95. In the case of GCAUCGGCUAGUUCAGCCATT against LOC330863, the z-score is reported as inactive: 0.303. For CCUCAAUCCUGGUCUAAAATT against Plcl2, the z-score was inactive: 0.223. For UGCCAUGGGACUCAUAGGCTT against Olfr160, the z-score was inactive: 1.19. For GGAUCACUACAAGUUGGCUTT against Gtpbp4, the z-score was inactive: 0.067. In the case of GCUGUCUUUUAUGCAAGCATT against Bteb1, the z-score is reported as inactive: -0.732. For CCUGUGAAUUCAUCGUUCATT against Dscr3, the z-score was inactive: 1.21. In the case of GGCUACAAAGAUGCAGACUTT against Pi4k2a, the z-score is reported as inactive: -1.81. With “GGCACUCAAUGUCUUCUAUTT against A530083I02Rik” the z-score was inactive: 0.478. With GGGUCCUUUUUCACAUGGUTT against Asph the z-score was inactive: 0.568. For GGUGGACCUGAAACGUAGCTT against Inhbb, the z-score was inactive: 0.118. With GGGUUACUUUAGCUAUUUCTT against Rbm14 the z-score was inactive: -0.226. With GGACGGACCUUUGUGUCUCTT against Axl the z-score was inactive: 1.15. For CGUUUGAAUAAUUCAGAGUTT against Armcx2, the z-score was inactive: -0.0626. In the case of GGAACAGUGAUCCAUUUUATT against Btf3, the z-score is reported as inactive: -2.51. For GGUUCUAAAACUUAACAAGTT against Brf2, the z-score was inactive: -0.875. For GGCAUUAUCUACAUGCACATT against Olfr1287, the z-score was inactive: 0.061. With GGUUGAGUACACCAAGAAUTT against Dcx the z-score was inactive: 0.0268. With GGAGCUUGCUCAGACUACUTT against Cct8 the z-score was inactive: -2.76. With GGCUGAUGGAAUUGUCUCATT against Rps21 the z-score was inactive: -3.13. In the case of GGACCUGACCAAUUGAGCUTT against Rusc1, the z-score is reported as inactive: -0.323. In the case of GGUGCAAGCUUUGAGAGGATT against Hsf4, the z-score is reported as inactive: 0.388. For “GCACGACUACUUCUCAAAUTT against 2610031L17Rik”, the z-score was inactive: -2.9. For CGGCAGUAAUCCCGUUGACTT against D12Wsu95e, the z-score was inactive: -0.709. For “CCAAGUCUGAUCUUUUGUATT against 4932416N17Rik”, the z-score was inactive: 0.0137. With “CCAUGAUGAUAAUCUGAAUTT against B930090D16Rik” the z-score was inactive: 0.709. In the case of “GGACUUACUCUCUCCGUGUTT against A530081L18Rik”, the z-score is reported as inactive: 0.622. With GGUCUACGUUAUUAUUACCTT against Etsrp71 the z-score was inactive: 1.02. In the case of CGGAGUAGCGAUUAUGGUGTT against Art5, the z-score is reported as inactive: 0.796. In the case of GGCAAUUCUUAGGACAAGUTT against LOC545471, the z-score is reported as inactive: 0.654. With GACCUUCGUUAGCAUUACGTT against Pfn1 the z-score was inactive: -1.01. With “GCUAGGUAUCUAAGGAUAUTT against A530089I17Rik” the z-score was inactive: -1.19. For “GCCAGUGGUAAAAUUGUUATT against 1810073G14Rik”, the z-score was inactive: -1.72. With GCUCAUCUAAGAGGAAUGATT against Jtb the z-score was inactive: -1.1. For CCUAUCAAAUUAAAUGCGCTT against Ly64, the z-score was inactive: 0.658. With “GGAGCUUUUUUAGUGAUCUTT against D430004I08Rik” the z-score was inactive: -0.576. With GCAACAAUAAAUCGUACAGTT against Nupr1 the z-score was inactive: 0.764. For GGCUAUGCAAGUGGAGAGCTT against Nfat5, the z-score was inactive: 0.182. For GCCUAUGACUACCUCGAGUTT against Rhob, the z-score was inactive: -0.366. With GCAAUUCCUCUUUUAGUCCTT against Spag6 the z-score was inactive: 0.602. In the case of “GGGAUGAAGUGUUCCAUCCTT against 4932418E24Rik”, the z-score is reported as inactive: -0.31. For “GGGUGAGUCCUAAAAAAAATT against 2610205E22Rik”, the z-score was inactive: 0.182. With CCCUGGAAAUUAGAUAACATT against Aldob the z-score was inactive: -0.761. In the case of GGUGGUGGGUCCAAUUUUUTT against Hn1, the z-score is reported as inactive: 2.32. With GGAGGUCCAGGAUUUUAUATT against AI326477 the z-score was inactive: 0.234. With GGAGAGGAACUCAGAACCATT against Lrmp the z-score was inactive: -0.0887. For GGAUUUUCUAAAAAGACACTT against Slc23a1, the z-score was inactive: 0.707. For GGUUAUGUGGAUGAAAGAUTT against Mybpc2, the z-score was inactive: -1.7. In the case of “GGCUGGUGUAAUCGAAACATT against 2810439F02Rik”, the z-score is reported as inactive: -0.0291. For CCCUAGACUUGAGAGUUUUTT against Eif2s1, the z-score was inactive: -1.99. With GAUCAAUGUGAAGGACAUCTT against Cyp2c50 the z-score was inactive: 0.471. With GGAAUUGGCAUGAACGAACTT against Psmd9 the z-score was inactive: -0.573. For GGGCUAGAUAUUCCAUGCATT against Olfr585, the z-score was inactive: -0.0783. With GGAUGCUCUGAAGAGACAUTT against Olfr493 the z-score was inactive: 2.28. In the case of GGAGAUCAACAGGAUUUUGTT against Gna15, the z-score is reported as inactive: 0.235. For GGAACACCCGGAUUACAAGTT against Sox1, the z-score was inactive: -0.762. For CGGAAUCAUACAUUGGUUCTT against Zfp217, the z-score was inactive: 0.608. With “CCACAGAACAGCCAUCAUGTT against 4930532L20Rik” the z-score was inactive: -2.18. For GGUCUUCUUCGUGUUCAUCTT against Olfr281, the z-score was inactive: -0.629. For CCUACGCCAAGCAGUAUGATT against Mcm3, the z-score was inactive: -2.51. In the case of “GGUUUCCUUUGUCUGUUUUTT against 9530091C08Rik”, the z-score is reported as inactive: 0.446. For GGAUGAUAGCGCAAAAGAUTT against Tparl, the z-score was inactive: 0.0118. With CCUAAUAGUACCAACAAAATT against Nxf2 the z-score was inactive: 0.732. With “GGAGCUUACCAAGCACUACTT against 6720430O15” the z-score was inactive: -0.153. With “GGUGCUAAAAAUGAGCCUUTT against 2900073H19Rik” the z-score was inactive: -1.71. With “CGGACCAUUAUGAGUCAUUTT against 1500011K16Rik” the z-score was inactive: 0.576. With GGCUAUCUACCAUUAUAUGTT against Ifit2 the z-score was inactive: -0.15. For GGUGCUUUUGCUUAGUGAUTT against Impg2, the z-score was inactive: 0.123. With GGAGCCCUGUGUCUUGAGUTT against Ccl19 the z-score was inactive: 0.242. In the case of GGUCUAUGUACUGUCCUGATT against Otop2, the z-score is reported as inactive: -1.09. In the case of GGGAACUGACAAAUGGAAGTT against Samsn1, the z-score is reported as inactive: 2.56. For GGAUCUAGGAGCUGAUUAUTT against Nrbf1, the z-score was inactive: -0.203. For GGUCGACAGUUAAAAUGAUTT against Bpil2, the z-score was inactive: -1.23. For CCCACAAGGUUAAGAUAUATT against Col14a1, the z-score was inactive: 0.22. In the case of “GGAGAAUGCCCUGAUAUAGTT against 4933439A12Rik”, the z-score is reported as inactive: -0.68. With GCGAUUUGACAACGAGACCTT against Bmp7 the z-score was inactive: 1.79. For “GGAGAUGAAGUUCCAAAAGTT against 2310061N23Rik”, the z-score was inactive: -2.38. In the case of CGUUAGUGACAUGCUCAUGTT against Olfr517, the z-score is reported as inactive: -0.156. For “GGCUUCUUGUCCAUGCAAATT against C330016O10Rik”, the z-score was inactive: 1.92. In the case of GGAGAUGAGAAGAUGGGCGTT against Ppp1r8, the z-score is reported as inactive: -0.341. For GCGGGCUUUGCUGAGAUUUTT against Hkr3, the z-score was inactive: -1.36. With GGUUUUAAUGGUACGAUUUTT against Nr1d2 the z-score was inactive: 0.451. For GCGAUGUAAUUACAAACCUTT against LOC378878, the z-score was inactive: -0.9. With GGUUACUUGAGUGAAUAAUTT against Asb12 the z-score was inactive: -1.94. In the case of GGCUACAAUAGCUGUGGUATT against Magea4, the z-score is reported as inactive: -1.43. With “GGUUAGGGUGCGUGUUACUTT against 2310033P09Rik” the z-score was inactive: 0.204. In the case of GCUGAUCUAACCAACAGCATT against Mark2, the z-score is reported as inactive: 1.1. For UGCAAUCCGGAUCAAACGUTT against Cebpb, the z-score was inactive: -1.09. With GGAUGAGGAUGUGACCAAGTT against Gpr73l1 the z-score was inactive: 0.868. In the case of GGCUUAUACGCUCCAUAUUTT against Gk-rs1, the z-score is reported as inactive: -0.0164. With CGCCUCACGAUUUUGAUGATT against Col4a3bp the z-score was inactive: -0.639. For GGGCUGAUUGACAAGUACUTT against Aldrl6, the z-score was inactive: -1.07. In the case of GGAAAAAGCUCAAAGGCGATT against Gap43, the z-score is reported as inactive: -0.387. In the case of “GGACCACAAAGCAGAAAAUTT against B230308G19Rik”, the z-score is reported as inactive: 1.04. In the case of GGCAGGAAUCUAUAUUAAUTT against Slc17a3, the z-score is reported as inactive: 0.656. In the case of GGCUGAAUUUGAUAAAACCTT against Oxr1, the z-score is reported as inactive: 0.261. In the case of UGGUUCUACAGCAUUUGUGTT against Olfr954, the z-score is reported as inactive: -1.07. With CCCGUCUCCUAAUUUUAACTT against Fgf17 the z-score was inactive: 0.147. With GGCUGGAGUAGAAAAGGGATT against Mapbpip the z-score was inactive: -0.258.
